Construct, isoform or probe ends are uncertain for at least one entry. For some assays here: Weaker means in comparison with the reference protein, sequence or condition of that experiment. For some assays here: Where cells or extracts were used, other partners may take part. For some assays here: No signal at the amounts used counts as a negative.
Key:
[1] = biological target: Flag-FOXJ2 (Homo sapiens) (UniProt Q9P0K8); assay: EMSA; conditions: Chemiluminescent EMSA Kit (Thermo) binding buffer, room temperature, 20 min, 5% polyacrylamide gel; salt and pH not stated; protein in a lysate after overexpression; protein details: Flag; single-stranded DNA
[2] = biological target: HIS-CNBP (Homo sapiens) (UniProt P62633); assay: EMSA; conditions: Flag-FOXJ2 present (disrupts CNBP binding); Chemiluminescent EMSA Kit (Thermo) binding buffer, room temperature, 20 min, 5% polyacrylamide gel; salt and pH not stated; recombinant protein; protein details: His (pET-28a); single-stranded DNA

The chains behind the UniProt entries cited, without tags or fusion partners. Where a name states a change or a piece, a line headed by the entry shows the natural chain unless it says otherwise.
UniProt Q9P0K8: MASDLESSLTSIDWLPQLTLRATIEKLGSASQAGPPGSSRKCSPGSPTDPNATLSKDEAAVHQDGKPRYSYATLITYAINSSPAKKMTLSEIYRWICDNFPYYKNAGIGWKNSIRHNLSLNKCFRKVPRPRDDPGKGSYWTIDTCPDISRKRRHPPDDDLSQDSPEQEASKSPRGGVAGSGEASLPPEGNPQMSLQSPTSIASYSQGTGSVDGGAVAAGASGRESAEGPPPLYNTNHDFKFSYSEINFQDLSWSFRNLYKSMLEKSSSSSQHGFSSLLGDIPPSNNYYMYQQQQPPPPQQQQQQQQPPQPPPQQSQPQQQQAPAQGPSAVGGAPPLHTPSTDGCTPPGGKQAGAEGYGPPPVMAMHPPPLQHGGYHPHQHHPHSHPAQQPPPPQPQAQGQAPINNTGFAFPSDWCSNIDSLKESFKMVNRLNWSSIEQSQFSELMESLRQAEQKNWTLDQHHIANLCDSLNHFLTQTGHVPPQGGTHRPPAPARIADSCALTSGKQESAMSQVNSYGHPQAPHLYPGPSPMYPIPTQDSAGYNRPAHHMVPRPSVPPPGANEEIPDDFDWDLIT
UniProt P62633: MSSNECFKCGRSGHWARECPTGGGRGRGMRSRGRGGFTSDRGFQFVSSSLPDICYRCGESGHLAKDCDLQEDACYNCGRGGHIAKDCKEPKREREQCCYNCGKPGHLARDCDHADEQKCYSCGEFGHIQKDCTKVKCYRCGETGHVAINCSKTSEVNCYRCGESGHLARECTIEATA

Q: Does GGGCTGGCGCGGAGGGAGGG [Biotin-G20] bind [1]?
A: Result: no binding

Q: Does GGGCTGGCGCGGAGGGAGGG [Biotin-G20] bind [2]?
A: Result: binds more weakly

From publication PMC6193743
